These are yes or no findings as the source states them, for the method shown. Binding can be weak; no strength is given. Tags and fused reporters may be left off the sequences shown.
Legend:
CD155PVR-His = assay: ELISA, CD155PVR-His captured, detected with IgG
recombinant CD155 [1] = assay: dual ELISA, OX40-Fc captured, detected with recombinant CD155
recombinant CD155 [2] = assay: Dual ELISA: OX40-Fc capture, CD155-His detection, 6x His HRP

Measured: binding

B1: human TIGIT-Fc-OX40L chimeric protein (Fc fusion)
chain: MMTGTIETTGNISAEKGGSIILQCHLSSTTAQVTQVNWEQQDQLLAICNADLGWHISPSFKDRVAPGPGLGLTLQSLTVNDTGEYFCIYHTYPDGTYTGRIFLEVLESSVAEHGARFQIPSKYGPPCPPCPAPEFLGGPSVFLFPPKPKDQLMISRTPEVTCVVVDVSQEDPEVQFNWYVDGVEVHNAKTKPREEQFNSTYRVVSVLTVLHQDWLSGKEYKCKVSSKGLPSSIEKTISNATGQPREPQVYTLPPSQEEMTKNQVSLTCLVKGFYPSDIAVEWESNGQPENNYKTTPPVLDSDGSFFLYSRLTVDKSRWQEGNVFSCSVLHEALHNHYTQKSLSLSLGKIEGRMDQVSHRYPRIQSIKVQFTEYKKEKGFILTSQKEDEIMKVQNNSVIINCDGFYLISLKGYFSQEVNISLHYQKDEEPLFQLKKVRSVNSLMVASLTYKDKVYLNVTTDNTSLDDFHVNGGELILIHQNPGEFCVL
binds: CD155PVR-His | recombinant CD155 [1] | recombinant CD155 [2]

— patent US20240190939A1
